The list shows a part of the results.

Sequences of proteins named here, by UniProt entry; tags and fusion partners are left off.
UniProt Q0JBA9, entry or part of it: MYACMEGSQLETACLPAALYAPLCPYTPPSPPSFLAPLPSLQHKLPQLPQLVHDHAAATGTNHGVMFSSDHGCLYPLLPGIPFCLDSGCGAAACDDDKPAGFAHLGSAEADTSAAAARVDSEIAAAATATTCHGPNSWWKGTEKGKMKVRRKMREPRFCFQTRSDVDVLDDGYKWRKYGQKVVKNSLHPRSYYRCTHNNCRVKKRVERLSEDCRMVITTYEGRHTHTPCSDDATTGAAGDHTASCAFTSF

For the assay, the target named is OsWRKY34 (Oryza sativa, UniProt Q0JBA9 1-250). The experiment in a line: protein-binding microarray (RPBM); PBS, 2% BSA, 51.3 ng/ul salmon testes DNA, 50 uM zinc acetate, 200 nM TF, 25 C, 1 h; high values mean tight binding. As to conditions: protein: recombinant; tags: N-terminal polyhistidine and DsRed monomer fusion (pET32a); label: CyDye5-dUTP incorporated in the synthesized complementary strand; 3' TTTTT single-stranded linker to array surface; dsDNA, one strand shown. The method in brief: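 Binding signal here means per-feature fluorescence intensity in arbitrary units. The values were read on an Axon 4000B scanner after a custom Agilent array, double-stranded by primer extension with Cy5-dUTP, was incubated with 200 nM protein at 25 °C for 1 h in PBS with 2% BSA, salmon testes DNA and 50 µM zinc acetate, then washed. The proteins were transcription factors with an N-terminal polyhistidine tag and DsRed, expressed in E. coli BL21-CodonPlus and purified on Ni–NTA.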
Regarding “TTTGTACCCGTTTTCTACTTTTTTTGTTTCATATTATTAACGGAGTCACCTAGTGCAG”, the binding signal is 10900 fluorescence intensity (a.u.).
The same measure for “GATTTTTTTTTTACGGACGGAATTTCTTTTCCCTTTTTTACGGAGTCACCTAGTGCAG”: 9380 fluorescence intensity (a.u.).
The same measure for “GCTTCTGGACCTCTCGTGGTGGTGGTGGTGGCCTCTTCTTCGGAGTCACCTAGTGCAG”: 11400 fluorescence intensity (a.u.); for “GATATTATGATAATTTTTTTCAATACGTTTTTACCGTACCCGGAGTCACCTAGTGCAG”: 8540 fluorescence intensity (a.u.); for “TGTGGCGTATTGATGTGCTCTCATGGTCTCATTATCATTTCGGAGTCACCTAGTGCAG”: 8540 fluorescence intensity (a.u.).
The same measure for “CCCACAGTCGTCCAGTCCGATTTTCGTCCCTTGACTGCAACGGAGTCACCTAGTGCAG”: 10000 fluorescence intensity (a.u.); for “CCTTAGCCGACACCACCTTCTCGCCACCGTAATTTACCTTCGGAGTCACCTAGTGCAG”: 9580 fluorescence intensity (a.u.); for “CTACTCCCTCCATTTTATATTATAAGTCATTTGACTTTTTCGGAGTCACCTAGTGCAG”: 10900 fluorescence intensity (a.u.).
On to “GTCACCCAGCACGGCAATTTCTGACTATTGTACTATTATTCGGAGTCACCTAGTGCAG”, for which the binding signal is 9820 fluorescence intensity (a.u.).
On to “CCACTCGTACCATCGACACCCTACTTTTTTTAAGGAGAAACGGAGTCACCTAGTGCAG”, for which the binding signal was 8040 fluorescence intensity (a.u.).
“ACCTATTTTTTTCATGACTATACTGTCTCTATATTTTTTACGGAGTCACCTAGTGCAG”: the binding signal is 9280 fluorescence intensity (a.u.).
Turning to “TCTTGTGGTGCCTTTTTCCTGCTTTTCAGCTTTCTAGGACCGGAGTCACCTAGTGCAG”, the binding signal is 11600 fluorescence intensity (a.u.).
The same measure for “ACCTCCACTTCTCAACCAATCATAACCCATTCCTATTTAACGGAGTCACCTAGTGCAG”: 9580 fluorescence intensity (a.u.); for “CTGCATCGACATCCTCATCGCCATCATCCTCCCTCCTCTCCGGAGTCACCTAGTGCAG”: 9170 fluorescence intensity (a.u.); for “GGGATCGTGGCAAATAATTTTTCTTAGTACTAGCACTAGACGGAGTCACCTAGTGCAG”: 8190 fluorescence intensity (a.u.).
The figure for “ATGTCCTTGTGTTCATGTGCTCGTACGATACGAAAATAGACGGAGTCACCTAGTGCAG” is 8120 fluorescence intensity (a.u.).
The figure for “GATGCTCTCGATGTCGATAAGGTTGCTGATTGTATCCTTTCGGAGTCACCTAGTGCAG” is 8650 fluorescence intensity (a.u.); for “ATAACTTAATGTTTCACTTGTTGGTCAACTGTAACATTTGCGGAGTCACCTAGTGCAG” it is 10300 fluorescence intensity (a.u.).
Consider “GCCATTTTTTTTTGTAACTTTACCAAAATTTGGTAAGGTTCGGAGTCACCTAGTGCAG”, for which the binding signal was 9400 fluorescence intensity (a.u.).
The same measure for “GATTCTTTTGCTCCGATCGTTTCGCTGTAGATTTGGTTTTCGGAGTCACCTAGTGCAG”: 10200 fluorescence intensity (a.u.); for “ATACTACCTCCGTTTTTTAATAGATGACGTCGTTGACTTTCGGAGTCACCTAGTGCAG”: 14600 fluorescence intensity (a.u.).
The figure for “TTGTGTTCTGTTCTTCCGCCTTATTTTTGCATAATGGTTTCGGAGTCACCTAGTGCAG” is 15300 fluorescence intensity (a.u.); for “TGTTAAATGATTAATCAACGTTAGCTCATTTTTGACGTGTCGGAGTCACCTAGTGCAG” it is 8460 fluorescence intensity (a.u.); for “TCAACCTTACTTAGTCACATGCTTTATTTTTTTTTTAAAACGGAGTCACCTAGTGCAG” it is 9800 fluorescence intensity (a.u.).
The figure for “TATTGTACTTGCTCTTATCTCCTTAAAATATATTTATAGCCGGAGTCACCTAGTGCAG” is 8730 fluorescence intensity (a.u.); for “TTGGTGAGAACAGCCTTATCTCTATCGCTTTACTCTCTCTCGGAGTCACCTAGTGCAG” it is 8150 fluorescence intensity (a.u.).
For the sequence “TGTTTAATTTTTATTTATTTTGTTTTTTGAGAGGAATCTTCGGAGTCACCTAGTGCAG”, the binding signal is 8640 fluorescence intensity (a.u.).
The figure for “GCTTATTTTGTAATATCACTTCAGTCTGCTTCATTCCCTTCGGAGTCACCTAGTGCAG” is 10700 fluorescence intensity (a.u.); for “CATGCTCGTTTCTTGTGGTGCCTAACATTTGTGCTTGTTTCGGAGTCACCTAGTGCAG” it is 11900 fluorescence intensity (a.u.); for “ACCTCGCTTCGGACAAGCCGACCCCGCCTGCTATTTCCCGCGGAGTCACCTAGTGCAG” it is 8450 fluorescence intensity (a.u.).
The same measure for “ATTTGTTCAATTTTTCCTGTGATGTAATGAAATGGCTTGTCGGAGTCACCTAGTGCAG”: 8360 fluorescence intensity (a.u.); for “CTCCTTGTCCACGTGGCGGCCTCCGATTCGCTGCCACCTCCGGAGTCACCTAGTGCAG”: 9620 fluorescence intensity (a.u.); for “ACTCACAGAAAGCGTCGGGGCGGGTCTGGGAGGGCTTGCGCGGAGTCACCTAGTGCAG”: 9140 fluorescence intensity (a.u.).
Consider “CTCTCTTCTACTACTCTTCCTTACCTAGCTAGTACTCCTACGGAGTCACCTAGTGCAG”, for which the binding signal is 8910 fluorescence intensity (a.u.).
As for “TGCTGGTTCTTTTGGTCAGCTTCAGTTGGCTGCCATGTTGCGGAGTCACCTAGTGCAG”, the binding signal was 8340 fluorescence intensity (a.u.).
The same measure for “CGGTTTCGGGTTGTTTGTTTGGATATCCGTGATTATTTCACGGAGTCACCTAGTGCAG”: 11500 fluorescence intensity (a.u.); for “TTTAACCATGTCATTTTATTTCTCACACTTGCTTTACTTTCGGAGTCACCTAGTGCAG”: 8860 fluorescence intensity (a.u.).
The figure for “TCTCTTTCTAGCTATTGACTGGTTTTTATATTAACTAGCACGGAGTCACCTAGTGCAG” is 9280 fluorescence intensity (a.u.); for “GAATGTGAGTTGGCATTTACTTTCTCCGTCCCAAAAATAACGGAGTCACCTAGTGCAG” it is 8080 fluorescence intensity (a.u.).
The same measure for “TAATTTTTTCACCTAGCTCTACTTATCATCCAATCATAATCGGAGTCACCTAGTGCAG”: 9440 fluorescence intensity (a.u.); for “AAATACAACTTTGACTTTTTGTTTCTTTAAAAATATTTATCGGAGTCACCTAGTGCAG”: 9920 fluorescence intensity (a.u.).
Take “GTGTAAGTTCATTCCAGATCTATTCATTTTGCGATTCACCCGGAGTCACCTAGTGCAG”: the binding signal is 8430 fluorescence intensity (a.u.).

The values above are taken from publication PMC7819943, “Rice protein-binding microarrays: a tool to detect cis-acting elements near promoter regions in rice”.
